For at least one entry, the source does not settle the construct or the ends of the probe. For part of these data: Negatives hold for the conditions tested. For part of these data: At least one verdict rests on a figure or table, not on a statement of the authors. For part of these data: Protein sequences can lack the tags named with them.
Tests used:
[1] = target: T1, StAREB1t (truncated, bZIP-containing) (Solanum tuberosum) (UniProt A0ABQ7WS50); test: competition with a labelled probe; conditions: 50- and 100-fold excess over ABRE probe; recombinant protein; protein details: N-terminal GST (pET42b); label: unlabeled competitor
T1 sequence (looked up, limits assumed): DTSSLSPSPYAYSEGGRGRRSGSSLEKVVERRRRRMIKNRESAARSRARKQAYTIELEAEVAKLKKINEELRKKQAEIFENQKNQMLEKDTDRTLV

[2] = system: StABL2 (Solanum tuberosum); test: competition with a labelled probe; conditions: 50- and 100-fold excess over ABRE probe; recombinant protein; protein details: N-terminal GST (pET42b); label: unlabeled competitor
[3] = system: StABL1 (Solanum tuberosum); test: competition with a labelled probe; conditions: 50- and 100-fold excess over ABRE probe; recombinant protein; protein details: N-terminal GST (pET42b); label: unlabeled competitor
[4] = target: T2, StAREB3t (truncated, bZIP-containing) (Solanum tuberosum) (UniProt M1A6S2); test: competition with a labelled probe; conditions: 50- and 100-fold excess over ABRE probe; recombinant protein; protein details: N-terminal GST (pET42b); label: unlabeled competitor
T2 sequence (looked up, limits assumed): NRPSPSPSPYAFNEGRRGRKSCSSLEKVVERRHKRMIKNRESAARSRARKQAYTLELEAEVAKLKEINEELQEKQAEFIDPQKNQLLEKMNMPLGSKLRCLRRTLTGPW

[5] = system: StABI5 (truncated, bZIP-containing) (Solanum tuberosum); test: competition with a labelled probe; conditions: 50- and 100-fold excess over ABRE probe; recombinant protein; protein details: N-terminal GST (pET42b); label: unlabeled competitor
[6] = target: T3, StAREB4t (truncated, bZIP-containing) (Solanum tuberosum) (UniProt M1C3P5); test: competition with a labelled probe; conditions: 50- and 100-fold excess over ABRE probe; recombinant protein; protein details: N-terminal GST (pET42b); label: unlabeled competitor
T3 sequence (looked up, limits assumed): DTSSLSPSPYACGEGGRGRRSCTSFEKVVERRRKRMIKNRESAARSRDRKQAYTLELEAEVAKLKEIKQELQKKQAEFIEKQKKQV

[7] = target: T4, StAREB2t (truncated, bZIP-containing) (Solanum tuberosum) (UniProt A0A3Q7GA77); test: competition with a labelled probe; conditions: 50- and 100-fold excess over ABRE probe; recombinant protein; protein details: N-terminal GST (pET42b); label: unlabeled competitor
T4 sequence (looked up, limits assumed): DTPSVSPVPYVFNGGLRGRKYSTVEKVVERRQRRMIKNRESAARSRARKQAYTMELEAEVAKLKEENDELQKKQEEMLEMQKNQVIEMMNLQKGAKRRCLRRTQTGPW

[8] = target: T1, StAREB1t (truncated, bZIP-containing) (Solanum tuberosum); test: EMSA; conditions: recombinant protein; protein details: N-terminal GST (pET42b); label: FAM (probe, competitor unlabeled)
[9] = system: StABL2 (Solanum tuberosum); test: EMSA; conditions: recombinant protein; protein details: N-terminal GST (pET42b); label: FAM (probe, competitor unlabeled)
[10] = system: StABL1 (Solanum tuberosum); test: EMSA; conditions: recombinant protein; protein details: N-terminal GST (pET42b); label: FAM (probe, competitor unlabeled)
[11] = target: T2, StAREB3t (truncated, bZIP-containing) (Solanum tuberosum); test: EMSA; conditions: recombinant protein; protein details: N-terminal GST (pET42b); label: FAM (probe, competitor unlabeled)
[12] = system: StABI5 (truncated, bZIP-containing) (Solanum tuberosum); test: EMSA; conditions: recombinant protein; protein details: N-terminal GST (pET42b); label: FAM (probe, competitor unlabeled)
[13] = target: T3, StAREB4t (truncated, bZIP-containing) (Solanum tuberosum); test: EMSA; conditions: recombinant protein; protein details: N-terminal GST (pET42b); label: FAM (probe, competitor unlabeled)
GST = test: EMSA; conditions: recombinant protein; label: FAM (probe, competitor unlabeled)
[14] = target: T4, StAREB2t (truncated, bZIP-containing) (Solanum tuberosum); test: EMSA; conditions: recombinant protein; protein details: N-terminal GST (pET42b); label: FAM (probe, competitor unlabeled)

Sequence | binding result [1] | binding result [2] | binding result [3] | binding result [4] | binding result [5] | binding result [6] | binding result [7] | binding result [8] | binding result [9] | binding result [10] | binding result [11] | binding result [12] | binding result [13] | binding result (GST) | binding result [14]
AATTCCGGACCTACAGCCTAAGCT (double strand) [mABRE] | no binding | no binding | no binding | no binding | no binding | no binding | no binding | – | – | – | – | – | – | – | –
AATTCCGGACACGTGGCGTAAGCT (double strand) [ABRE (Em1a element)] | – | – | – | – | – | – | – | binds | binds | binds | binds | binds | binds | no binding | binds
